From patent US20240018230A1, “METHODS FOR TREATING OR MODULATING AN INFLAMMATORY RESPONSE” (St. Jude Children's Research Hospital, Inc., priority 2020, published 2024)
At least one structure is not confirmed: it was looked up by name or label, or the drawing left a doubt.

System: cancer cells
Experiment: JAK inhibition of TNF-α and IFN-γ-induced cancer cell death
Format: cell-based, human
Conditions: co-treated with 5 μM baricitinib

## CCS(=O)(=O)N1CC(CC#N)(n2cc(-c3ncnc4[nH]ccc34)cn2)C1 [baricitinib]
  effect on cancer cell death induced by TNF-α and IFN-γ: reduced cell death
